Results from patent US5681863A, “Non-metabolizable clomiphene analogs for treatment of tamoxifen-resistant tumors” (Merrell Pharmaceuticals Inc., priority 1994, dated 1997).

How the values were obtained:
[1] = test system: LY2; experiment: Antiproliferation test, LY-2 human breast cancer cells (MCF-7 variant resistant to tamoxifen); format: cell-based; settings: MCF7, 168 h, 7 days, sulforhodamine dye, 5% fetal bovine serum, read-out: TRIPHENYLETHYLENE IC50's AGAINST BREAST CANCER CELLS, IC50, Cell line LY2
Method: (§1) Antiproliferation test Procedure:
(§2) The tests were conducted in 96-well microtiter plates. 5×10^3 cells were added to each well. Culture medium and drug solutions were added to wells with a Perkin Elmer Cetus PRO/PETTE. The culture medium was IMEM supplemented with 5% fetal bovine serum. Eight drug concentrations were tested, in duplicate, from 0.078 micromolar (μM) to 10 μM. After four days incubation the medium was replaced with fresh medium containing drug, and after a total of seven days, the cell monolayers were fixed with trichloracetic acid and stained with sulforhodamine dye. Absorbances (492 nm) of the extracted dye solutions were measured with a Titertek Multiscan plate reader.

[2] = test system: MCF-7; experiment: Antiproliferation test, MCF-7 human breast cancer cells (tamoxifen-sensitive); format: cell-based; settings: MCF7, 168 h, 7 days, sulforhodamine dye, 5% fetal bovine serum, read-out: TRIPHENYLETHYLENE IC50's AGAINST BREAST CANCER CELLS, IC50, Cell line MCF-7
Method: as §1, §2

CC/C(=C(\c1ccccc1)c1ccc(OCCN(C)C)cc1)c1ccccc1 [TAMOXIFEN]
IC50 [1]: 8 µM
IC50 [2]: 1.7 µM
